{"source": "PubChem BioAssay AID1508588 (Peter MacCallum Cancer Centre, 2020)", "test": "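Genome-wide search for knock-downs that heighten vemurafenib action in melanoma cells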 (primary screen)", "cells": "human WM266.4 melanoma cells (BRAF V600 mutant)", "reagents": "siRNA pool against human genes, 40 nM", "time to read-out": "96 h from transfection to read-out", "conditions": "vemurafenib 300 nM (about IC25), added 48 h after transfection, for 48 h; comparison arm got DMSO vehicle only", "measurement": "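Ratios to non-targeting siRNA for cell gain, counted as DAPI nuclei after minus before drug and averaged over two replicates, and for absorbance-read medium lactate per cell; both binned into fold-change classes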", "scale": "cell gain with vemurafenib: higher = more cell gain than with non-targeting siRNA; lactate per cell with vemurafenib: higher = more lactate made per cell", "hit rule": "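Enhancement is called by pairing each knock-down's vehicle-arm and drug-arm fold-change classes for viability or glycolysis; which class combinations qualify is not given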", "meaning of the calls": "active = enhances vemurafenib effect; inactive = no enhancement seen", "note": "The whole screen tested about 18,000 reagents; below is a part drawn at random. 790 of all reagents (4.4%) were called active. 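Calls rest on a combination of fold-change classes in drug and vehicle arms, not all shown here.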"}
{"gene": "DPH6 (GeneID 89978)", "cell gain with vemurafenib": 0.97, "lactate per cell with vemurafenib": 0.55, "outcome": "inactive"}
{"gene": "PRICKLE2 (GeneID 166336)", "cell gain with vemurafenib": 0.5, "lactate per cell with vemurafenib": 0.88, "outcome": "inactive"}
{"gene": "KRT81 (GeneID 3887)", "cell gain with vemurafenib": -0.02, "lactate per cell with vemurafenib": 1.17, "outcome": "inactive"}
{"gene": "RNASE6 (GeneID 6039)", "cell gain with vemurafenib": 0.19, "lactate per cell with vemurafenib": 2.17, "outcome": "inactive"}
{"gene": "ALG6 (GeneID 29929)", "cell gain with vemurafenib": 0.47, "lactate per cell with vemurafenib": 0.6, "outcome": "inactive"}
{"gene": "ANKAR (GeneID 150709)", "cell gain with vemurafenib": 0.32, "lactate per cell with vemurafenib": 1.71, "outcome": "inactive"}
{"gene": "ZNF785 (GeneID 146540)", "cell gain with vemurafenib": 1.08, "lactate per cell with vemurafenib": 1.01, "outcome": "inactive"}
{"gene": "GPR3 (GeneID 2827)", "cell gain with vemurafenib": 0.35, "lactate per cell with vemurafenib": 1.5, "outcome": "inactive"}
{"gene": "CSTB (GeneID 1476)", "cell gain with vemurafenib": 0.3, "lactate per cell with vemurafenib": 1.46, "outcome": "inactive"}
{"gene": "MPPED2 (GeneID 744)", "cell gain with vemurafenib": 0.28, "lactate per cell with vemurafenib": 1.3, "outcome": "inactive"}
{"gene": "PAWR (GeneID 5074)", "cell gain with vemurafenib": 0.64, "lactate per cell with vemurafenib": 0.75, "outcome": "inactive"}
{"gene": "PNPLA6 (GeneID 10908)", "cell gain with vemurafenib": 0.6, "lactate per cell with vemurafenib": 1.29, "outcome": "inactive"}
{"gene": "R3HDM4 (GeneID 91300)", "cell gain with vemurafenib": 0.24, "lactate per cell with vemurafenib": 2.6, "outcome": "inactive"}
{"gene": "FARSA (GeneID 2193)", "cell gain with vemurafenib": 0.98, "lactate per cell with vemurafenib": 0.66, "outcome": "inactive"}
{"gene": "DYRK4 (GeneID 8798)", "cell gain with vemurafenib": 1.13, "lactate per cell with vemurafenib": 1.07, "outcome": "inactive"}

Next part; the last 3 above are carried over.
{"gene": "R3HDM4 (GeneID 91300)", "cell gain with vemurafenib": 0.24, "lactate per cell with vemurafenib": 2.6, "outcome": "inactive"}
{"gene": "FARSA (GeneID 2193)", "cell gain with vemurafenib": 0.98, "lactate per cell with vemurafenib": 0.66, "outcome": "inactive"}
{"gene": "DYRK4 (GeneID 8798)", "cell gain with vemurafenib": 1.13, "lactate per cell with vemurafenib": 1.07, "outcome": "inactive"}
{"gene": "EEF1G (GeneID 1937)", "cell gain with vemurafenib": 0.39, "lactate per cell with vemurafenib": 1.24, "outcome": "inactive"}
{"gene": "PSMC4 (GeneID 5704)", "cell gain with vemurafenib": -0.1, "lactate per cell with vemurafenib": 6.59, "outcome": "inactive"}
{"gene": "CDCA3 (GeneID 83461)", "cell gain with vemurafenib": 0.73, "lactate per cell with vemurafenib": 1.5, "outcome": "inactive"}
{"gene": "ZNF174 (GeneID 7727)", "cell gain with vemurafenib": 1.05, "lactate per cell with vemurafenib": 0.86, "outcome": "inactive"}
{"gene": "SCARF1 (GeneID 8578)", "cell gain with vemurafenib": 0.32, "lactate per cell with vemurafenib": 0.62, "outcome": "inactive"}
{"gene": "BTNL2 (GeneID 56244)", "cell gain with vemurafenib": 0.3, "lactate per cell with vemurafenib": 0.79, "outcome": "inactive"}
{"gene": "H1-4 (GeneID 3008)", "cell gain with vemurafenib": 0.96, "lactate per cell with vemurafenib": 0.52, "outcome": "inactive"}
{"gene": "EXOSC8 (GeneID 11340)", "cell gain with vemurafenib": 0.02, "lactate per cell with vemurafenib": 2.09, "outcome": "inactive"}
{"gene": "RARRES2 (GeneID 5919)", "cell gain with vemurafenib": 0.96, "lactate per cell with vemurafenib": 0.68, "outcome": "inactive"}
{"gene": "MCAT (GeneID 27349)", "cell gain with vemurafenib": 0.51, "lactate per cell with vemurafenib": 1.15, "outcome": "inactive"}
{"gene": "NPHP1 (GeneID 4867)", "cell gain with vemurafenib": 0.23, "lactate per cell with vemurafenib": 2.21, "outcome": "inactive"}
{"gene": "ITGB1BP2 (GeneID 26548)", "cell gain with vemurafenib": 0.78, "lactate per cell with vemurafenib": 0.82, "outcome": "inactive"}
